This assay has as its system HEK293A TEAD-LUC reporter. Put plainly: TEAD-luciferase reporter activity (YAP activation), robust Z score vs plate; higher = stronger YAP/TEAD activation. Particulars: 24 h.

This passage reports TEAD-luciferase reporter activity results from the supplement of paper PMC10735217.

This is one part of the list. Single values are uncertain here, since repeats match poorly.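 Human kidney-derived cells stably carry a construct in which eight TEAD-binding elements drive luciferase, measured by luminescence in a drug-repurposing library screen. A hit is any compound whose signal exceeds the plate mean by more than five robust Z scores.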

Consider `COc1ccc(-c2nc(C(F)(F)F)sc2-c2ccc(OC)cc2)cc1` [Itazigrel], for which the TEAD-luciferase reporter activity is inactive: -1.27 (compound concentration: 200 nM), inactive: -0.0239 (compound concentration: 2 uM) and inactive: 1.86 (compound concentration: 10 uM).
As for `O=C([O-])[C@@](O)(CSc1ccccc1)CS(=O)(=O)c1ccc(-c2ccc(Cl)cc2)cc1`, the TEAD-luciferase reporter activity is, setting by setting: (compound concentration: 200 nM) inactive: -0.933; (compound concentration: 2 uM) inactive: 0.441; (compound concentration: 10 uM) inactive: -1.63.
On the same counts, the results for `O=C(N[C@@H](Cc1ccccc1)C(=O)O)c1cc(-c2ccc(Nc3nc4ccc(F)cc4s3)cc2)no1` are inactive: -0.307, inactive: -0.689 and inactive: -0.412.
As for `COc1cc(N)ccc1-c1nc2c(C)nn(C3CCCCC3)c2c(=O)[nH]1`, the TEAD-luciferase reporter activity by setting is: (compound concentration: 200 nM) inactive: -0.911; (compound concentration: 2 uM) inactive: -0.0646; (compound concentration: 10 uM) inactive: 1.64.
In the same order, the values of `O=C1NC(=O)/C(=C/c2ccc3nccc(-c4ccncc4)c3c2)S1` are inactive: -1.42, inactive: -1.97 and inactive: -1.2.
With `COC(=O)c1ccccc1OC(=O)c1cccs1`, the TEAD-luciferase reporter activity was inactive: -1.36 (compound concentration: 200 nM), inactive: -1.51 (compound concentration: 2 uM) and inactive: 1.51 (compound concentration: 10 uM).
Regarding `N#Cc1ccc(C(O)CN2CC=C(C3=NNC(=O)CC3)CC2)cc1` (stereo not drawn), the TEAD-luciferase reporter activity reads like this: (compound concentration: 200 nM) inactive: -0.616; (compound concentration: 2 uM) inactive: -0.421; (compound concentration: 10 uM) inactive: 0.626.
Regarding `O=C1Nc2ccc(Cl)cc2[C@@](C#CC2CC2)(C(F)(F)F)N1`, the TEAD-luciferase reporter activity by setting is: (compound concentration: 200 nM) inactive: -1.36; (compound concentration: 2 uM) inactive: -0.979; (compound concentration: 10 uM) inactive: 0.976.
As to `C#C[C@]1(O)CC[C@H]2[C@@H]3CCc4cc(OC)ccc4[C@H]3CC[C@@]21C`, the TEAD-luciferase reporter activity is, setting by setting: (compound concentration: 200 nM) inactive: 0.0625; (compound concentration: 2 uM) inactive: -0.636; (compound concentration: 10 uM) inactive: -0.968.
Consider `CCCNC(=O)Nc1ccc(Oc2ncnc3cc(OC)c(OC)cc23)cc1Cl`, for which the TEAD-luciferase reporter activity was inactive: -1.32 (compound concentration: 200 nM), inactive: -1.45 (compound concentration: 2 uM) and inactive: -1.41 (compound concentration: 10 uM).
For `O=C(O)C1CCc2cc(C3CCCCC3)c(Cl)cc21` (stereo not drawn) [clidanac], the TEAD-luciferase reporter activity was inactive: 0.393 (compound concentration: 200 nM), inactive: 0.402 (compound concentration: 2 uM) and active: 5.53 (compound concentration: 10 uM).
Consider `CN1CCN(c2nc(C3=C(c4c[nH]c5ccccc45)C(=O)NC3=O)c3ccccc3n2)CC1` [Sotrastaurin], for which the TEAD-luciferase reporter activity runs as follows: (compound concentration: 200 nM) inactive: 1.07; (compound concentration: 2 uM) inactive: 0.555; (compound concentration: 10 uM) inactive: 0.507.
Take `Cc1cccc(F)c1C(=O)Nc1cnc(-c2cc3c(cc2Cl)OC(F)(F)O3)cn1`: the TEAD-luciferase reporter activity is inactive: -2.17 (compound concentration: 200 nM) and inactive: -1.26 (compound concentration: 10 uM).
Turning to `CC(=O)Nc1c(Br)cc(Br)cc1CN(C)C12CC3CC(CC(C3)C1)C2`, the TEAD-luciferase reporter activity (compound concentration: 200 nM) was inactive: -2.05, the TEAD-luciferase reporter activity (compound concentration: 2 uM) was inactive: -1.15 and the TEAD-luciferase reporter activity (compound concentration: 10 uM) is inactive: 1.8.
On to `CC(Oc1ccc(Oc2cnc3ccc(Cl)cc3n2)cc1)C(=O)O` (stereo not drawn), for which the TEAD-luciferase reporter activity (compound concentration: 200 nM) is inactive: -1.07, the TEAD-luciferase reporter activity (compound concentration: 2 uM) is inactive: 0.0759 and the TEAD-luciferase reporter activity (compound concentration: 10 uM) was inactive: -1.3.
On the same counts, the results for `Nc1nc(S)c2nc[nH]c2n1` [Tioguanine] are inactive: -1.18, inactive: 4.44 and inactive: -0.00645.
With `CCCc1c(OCCCOc2ccc3c(=O)cc(CCC(=O)O)oc3c2CCC)ccc(C(C)=O)c1O`, the TEAD-luciferase reporter activity was inactive: 1.78 (compound concentration: 200 nM), inactive: -0.211 (compound concentration: 2 uM) and inactive: 0.879 (compound concentration: 10 uM).
In the case of `CC1CCc2cc(F)cc3c(=O)c(C(=O)O)cn1c23` (stereo not drawn), the TEAD-luciferase reporter activity reads like this: (compound concentration: 200 nM) inactive: 0.296; (compound concentration: 10 uM) inactive: -0.691.
Turning to `CC1CCc2cc(F)cc3c(=O)c(C(=O)O)cn1c23` (stereo not drawn) [flumequine], the TEAD-luciferase reporter activity (compound concentration: 2 uM) is inactive: 0.21.
With `c1ccc(C(O[C@@H]2CCCN(CCc3ccc4c(c3)OCO4)C2)c2ccccc2)cc1` [Zamifenacin], the TEAD-luciferase reporter activity (compound concentration: 200 nM) was inactive: -1.41, the TEAD-luciferase reporter activity (compound concentration: 2 uM) was inactive: 0.478 and the TEAD-luciferase reporter activity (compound concentration: 10 uM) was inactive: 0.441.
For `O=C(O)COc1ccc(CCNS(=O)(=O)c2ccccc2)s1` [Linotroban], the TEAD-luciferase reporter activity reads like this: (compound concentration: 200 nM) inactive: 0.267; (compound concentration: 2 uM) inactive: -1.04; (compound concentration: 10 uM) inactive: -0.17.
As for `CCCCCCCC(=O)OCC(=O)[C@@]1(O)CC[C@H]2[C@@H]3CCC4=CC(=O)CC[C@]4(C)[C@H]3[C@@H](O)C[C@@]21C`, the TEAD-luciferase reporter activity (compound concentration: 200 nM) is inactive: -1.81, the TEAD-luciferase reporter activity (compound concentration: 2 uM) is inactive: 0.244 and the TEAD-luciferase reporter activity (compound concentration: 10 uM) is inactive: 1.83.
In the same order, the values of `Nc1ccn([C@@H]2CO[C@H](CO)O2)c(=O)n1` [Troxacitabine] are inactive: -0.799, inactive: -1.41 and inactive: 2.88.
With `CCc1c2c(nc3ccc(O)cc13)-c1cc3c(c(=O)n1C2)COC(=O)[C@]3(O)CC` [7-Ethyl-10-hydroxycamptothecin], the TEAD-luciferase reporter activity is, setting by setting: (compound concentration: 200 nM) inactive: 0.813; (compound concentration: 10 uM) inactive: -0.241.
With `CCc1c2c(nc3ccc(O)cc13)-c1cc3c(c(=O)n1C2)COC(=O)[C@]3(O)CC`, the TEAD-luciferase reporter activity (compound concentration: 2 uM) is inactive: -1.29.
`CCCc1nn(CC(F)(F)F)c(CO)c1Cc1ccc(-c2ccccc2-c2nnn[nH]2)cc1`: the TEAD-luciferase reporter activity reads like this: (compound concentration: 200 nM) inactive: -0.309; (compound concentration: 2 uM) inactive: -0.837; (compound concentration: 10 uM) inactive: 0.41.
As for `COc1ccccc1Oc1c(NS(=O)(=O)c2ccc(C(C)(C)C)cc2)nc(-c2ncccn2)nc1OCCO` [Bosentan], the TEAD-luciferase reporter activity runs as follows: (compound concentration: 200 nM) inactive: -0.0354; (compound concentration: 10 uM) inactive: 1.98.
